The other results are listed elsewhere or left out. These are further read-outs of the screen, such as a control signal, another cell line or another target. No call is given for them. The list favours compounds with an active or inconclusive main result. Potencies come from curve fits of mixed quality, noted in brackets.
Experiment: qHTS Assay to Find Inhibitors of Chronic Active B-Cell Receptor Signaling
Conditions: ABC-DLBCL IkBa-CBG/CBR reporter, luminescence ratio (green luciferase fused to IkBa over red control in TMD8 lymphoma cells), 4 h
How it was run: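 Doxycycline induced both beetle luciferases in TMD8 lymphoma cells; IKK-driven degradation limits the IkappaBalpha-fused green signal, while red luminescence normalises for cell number and nonspecific effects. Compounds tested up to 46 uM, 4 hrs.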

[1] = measured here: CBR red luminescence, cell number
[2] = measured here: IkBa-CBG green luminescence

Compound | AC50 [1] | AC50 [2]
CC(C)N(Cc1ccccc1)C(=O)COc1ccccc1 | 35.5 µM [rising, single point] | –
CC1=C(C(=O)OC2CCCC2)C(c2ccc(C)o2)C2=C(CC(c3cccs3)CC2=O)N1 (configuration not stated) | 0.164 µM [falling, full curve, poor fit] | –
COc1cccc(NC(=S)N(CCCN2CCCC2)Cc2cccn2Cc2ccc(Cl)cc2)c1 | 12.6 µM [falling, partial curve, poor fit] | –
O=S(=O)(Nc1ccccc1)c1ccc(NS(=O)(=O)c2cccs2)cc1 | 17.8 µM [rising, partial curve] | –
COc1ccccc1NC(=O)CSc1nnnn1-c1ccccc1OC | 12.6 µM [falling, partial curve] | –
CCNC(=O)N1CCN(CCCC(c2ccc(F)cc2)c2ccc(F)cc2)CC1 | 29.1 µM [falling, single point] | –
C/C(Cn1nnc([N+](=O)[O-])n1)=N\NC(=O)c1ccccc1Cl | 10 µM [falling, partial curve] | –
CCCNC(=O)CN(CCc1ccccc1)S(C)(=O)=O | 0.0651 µM [falling, full curve, poor fit] | –
CCCCN(C)CC(O)Cn1cc(/C=C/C(=O)c2cccs2)c2ccccc21 (configuration not stated) | 11.6 µM [falling, partial curve, poor fit] | –
NS(=O)(=O)c1ccc(NC(=O)COC(=O)CN2C(=O)C3CC=CCC3C2=O)cc1 (configuration not stated) | 0.0058 µM [rising, full curve, poor fit] | –
Cc1ccccc1C(=O)NC(C)C1CC2CCC1C2 (configuration not stated) | 35.5 µM [rising, single point] | –
Cc1ccccc1Cn1ccc(NC(=O)c2cc3ncc(Br)cn3n2)n1 | 12.6 µM [falling, partial curve] | –
CCOC(=O)C1=C(COC(=O)/C=C/c2cccc(OC)c2OC)NC(=O)NC1C (configuration not stated) | 11.2 µM [falling, single point] | –
CCc1cc(C(c2ccc(OC)c(OC)c2)N2CCOCC2)c(NC(=O)c2ccccc2)s1 (configuration not stated) | 29.1 µM [falling, single point] | –
CCc1ccccc1Nc1nc(N)nc(CSc2nnc3ccccn23)n1 | 3.55 µM [rising, single point] | –
COC(=O)CCC(=O)Oc1ccc(OC(=O)CCC(=O)OC)cc1 | 16.4 µM [falling, partial curve] | –
CCc1cc(C(=O)NNC(=S)NCc2ccccc2)cs1 | 15.8 µM [falling, partial curve] | 17.8 µM [rising, partial curve, poor fit]
O=C(Nc1ccccc1Cl)c1ccc(F)c(S(=O)(=O)NCc2ccc(Cl)c(Cl)c2)c1 | 25.1 µM [falling, single point] | –
CCOC(=O)Cc1csc(N)n1 | 18.4 µM [falling, partial curve, poor fit] | –
O=C(O)CCC(=O)c1ccc2ccc3cccc4ccc1c2c34 | 0.708 µM [falling, full curve] | 12.6 µM [rising, single point]
CCCC(=O)c1ccc(N2CCOCC2)c(F)c1 | 14.1 µM [rising, single point] | –

Compound | AC50 [1] | AC50 [2]
Cc1c(C=O)c2ccccn2c1C(=O)c1ccc(F)cc1 | 5.62 µM [rising, partial curve, poor fit] | –
COc1ccc([C@@H]2C[C@H]3CN(Cc4ccccc4OC)C(=O)[C@]34CCCN24)cc1C | 2.82 µM [rising, partial curve, poor fit] | –
Cc1ccc(S(=O)(=O)N(CC(=O)N2CCOCC2)c2ccc(Br)cc2)cc1 | 8.91 µM [falling, partial curve, poor fit] | –
CCN(CC)CCC(=O)N1c2ccccc2CCc2ccc(NC(=O)OC)cc21 | 11.2 µM [falling, partial curve] | –
O=C(Nc1nc(-c2cc(F)ccc2F)cs1)C1=COCCO1 | 0.259 µM [rising, partial curve, poor fit] | –
CCC(CC)C(=O)N1CC(=O)Nc2ccc(C)cc2C1c1ccccc1 (configuration not stated) | 35.5 µM [falling, single point] | 35.5 µM [rising, partial curve, poor fit]
COC1=C(OC)C(=O)C(CCCCCCCCCCO)=C(C)C1=O | 14.1 µM [falling, partial curve] | –
Cc1sc2nc(CN3CCOCC3)[nH]c(=S)c2c1C | 22.4 µM [rising, partial curve, poor fit] | –
CCCn1c(=N)n(CC(=O)c2ccco2)c2ccccc21 | – | 25.1 µM [rising, partial curve, poor fit]
COC(=O)CC1=C(C(=O)OC)C(c2cccs2)C(C#N)=C(N)O1 (configuration not stated) | 8.91 µM [falling, partial curve] | –
Cc1cc(Nc2cccc([N+](=O)[O-])c2)c2cccc(C)c2n1 | 31.6 µM [falling, single point] | –
CC(=O)c1c(C)[nH]c(C(=O)CSc2nnc(C3CCCCC3)n2N)c1C | 29.1 µM [falling, single point] | –
Cn1cc(S(=O)(=O)NC[C@H]2O[C@@H](n3cnc4c(N)ncnc43)[C@H](O)[C@@H]2O)cn1 | 23.1 µM [rising, single point] | –
Cc1ccccc1N1CCN(C2CCCN(C(=O)CN3CCCC3=O)C2)CC1 (configuration not stated) | 3.55 µM [falling, single point] | –
O=C(c1scc2c1CCCC2)N1CCCCC1 | 29.1 µM [rising, single point] | –
COc1ccc(C2CC2/C(=N/OC(=O)c2cccs2)c2ccccc2)cc1 (configuration not stated) | 0.0082 µM [rising, full curve, poor fit] | –
N#CC1=C2N=C(N)c3c(sc4c3CCCCC4)N2C2=C(C(=O)CCC2)C1c1ccccc1 (configuration not stated) | 1.41 µM [falling, full curve] | –
O=c1c2cnn(-c3ccccc3)c2ncn1CCc1ccccc1 | 1.64 µM [rising, full curve, poor fit] | –
Nc1ccc(C(=O)Nc2ccc(Nc3ccncc3)cc2)cc1 | 8.91 µM [falling, partial curve, poor fit] | –
Cc1ccc(-c2nc(N)sc2-c2ccc(C)cc2)cc1 | 22.4 µM [rising, partial curve, poor fit] | –
COCC(C)n1c(C)cc(C(=O)COC(=O)CNC(=O)c2ccccc2)c1C (configuration not stated) | 3.26 µM [rising, full curve, poor fit] | –

Compound | AC50 [1] | AC50 [2]
COc1cccc(NC(=O)c2nnn(CCc3ccccc3)c2N)c1 | 29.1 µM [falling, single point] | –
CC(=O)Nc1ccc(NC(=O)c2cc(=O)c3cc(C)cc(C)c3o2)cc1 | 35.5 µM [falling, single point] | –
COc1cc(CNCCN(C)C)c(Br)cc1OC1CCCC1 | 6.31 µM [rising, full curve] | –
Cc1ccc(-n2ncc3c(N4CCCCC4)ncnc32)cc1Cl | 3.55 µM [falling, partial curve, poor fit] | –
COc1ccc(F)cc1C(=O)C1CCCN(Cc2cccn2-c2ccccn2)C1 (configuration not stated) | 31.6 µM [falling, single point] | –
COc1ccc(Nc2nc(N)c(C(=O)c3ccc(OC)cc3)s2)cc1 | 3.98 µM [falling, partial curve, poor fit] | –
CC1Cc2ccccc2N1C(=O)C1CCN(S(=O)(=O)Cc2ccccc2)CC1 (configuration not stated) | 12.6 µM [rising, partial curve, poor fit] | –
Nn1cnc2cc3ccccc3cc2c1=O | 4.47 µM [falling, partial curve] | –
CCc1ccc(/C=C2/Sc3ccccc3N(CC(=O)NCCCOC)C2=O)cc1 | 2.82 µM [falling, full curve, poor fit] | –
CCOC(=O)C1C(=O)NCC2CCCC21 (configuration not stated) | 0.517 µM [falling, full curve, poor fit] | –
C=CCSC1=N/C(=C/c2ccsc2)C(=O)N1c1ccccc1 | 0.731 µM [rising, partial curve, poor fit] | –
Cc1onc(-c2ccccc2)c1C(=O)NC(=S)NNC(=O)c1ccc(O)cc1 | 7.31 µM [falling, partial curve] | –
CCc1nnc(NC(=O)CSc2ccc(-c3nc4ccc(C)cc4[nH]3)cn2)s1 | 1.3 µM [falling, full curve, poor fit] | –
C=CCC[C@H](Cc1ccc(F)cc1)C(=O)OC[C@@H](Cc1c[nH]c2ccccc12)NC(=O)[C@@H](CC=C)CC(=O)NCCO | 23.1 µM [falling, single point] | –
COc1cc(C#Cc2c(-c3cncn3C)n(C)c3ccc(-c4cnc(OC)nc4)cc23)cc(OC)c1 | 5.17 µM [falling, full curve] | 7.31 µM [rising, partial curve, poor fit]
COc1ccc(C2NC3=C(CCCC3)C(C#N)(C#N)C2(C#N)C#N)cc1 (configuration not stated) | 11.2 µM [falling, partial curve] | –
CCCCNCc1cc2ccccc2o1 | 12.6 µM [rising, single point] | –
COc1cc2c(cc1OC)CN(C(=O)c1ccc(-c3ccccc3)cc1)CC2 | 35.5 µM [falling, single point] | –
CCc1ccc(CNCc2cccnc2)cc1 | 29.1 µM [rising, single point] | –
COC(=O)c1ccc(/C=N/Nc2nc(-c3ccccc3)cs2)cc1 | 14.6 µM [falling, single point] | –
COc1ccc(NC(=S)Nc2cc(C(F)(F)F)ccc2F)cc1 | 35.5 µM [rising, partial curve, poor fit] | –

Four structures out of the list, ordered by length of the SMILES, ascending:
Compound | AC50 [1] | AC50 [2]
CCOC(=O)C1C(=O)NCC2CCCC21 (configuration not stated) | 0.517 µM [falling, full curve, poor fit] | –
C=CCSC1=N/C(=C/c2ccsc2)C(=O)N1c1ccccc1 | 0.731 µM [rising, partial curve, poor fit] | –
CC(=O)Nc1ccc(NC(=O)c2cc(=O)c3cc(C)cc(C)c3o2)cc1 | 35.5 µM [falling, single point] | –
CCc1nnc(NC(=O)CSc2ccc(-c3nc4ccc(C)cc4[nH]3)cn2)s1 | 1.3 µM [falling, full curve, poor fit] | –

Source: PubChem BioAssay AID493014 (National Center for Advancing Translational Sciences (NCATS), 2011)
